# Some of the results follow. These are further read-outs of the screen, such as a control signal, another cell line or another target. No call is given for them. The list favours compounds with an active or inconclusive main result. The note in brackets gives the kind of curve behind each potency; many fits are weak.
# Test: qHTS Assay to Find Inhibitors of Chronic Active B-Cell Receptor Signaling
# Settings: ABC-DLBCL IkBa-CBG/CBR reporter, luminescence ratio (green luciferase fused to IkBa over red control in TMD8 lymphoma cells), 4 h
# In short: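 Cell line TMD8 (human ABC DLBCL), stably expressing tet-inducible CBG68-IkBa fusion and CBR; IMDM/0.5% FBS; cpd up to 46 uM; dox induction, 4 h, 37C/5% CO2; dual luminescence; green/red ratio; MG132 control.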
# [1] = measured here: CBR red luminescence, cell number
# [2] = measured here: IkBa-CBG green luminescence
compound,measurement,setting,value
CN(C)c1ccc(N2CC(C)(C)C2=O)cc1,AC50,[1],"10 µM [rising, single point]"
COc1ccc(-c2c(C#Cc3ccsc3)c3cc(-c4ccc(OC)nc4)ccc3n2C)cc1,AC50,[1],"29.1 µM [falling, single point]"
O=C(NC(=S)NCCC1=CCCCC1)c1ccc(Br)o1,AC50,[1],"35.5 µM [rising, single point]"
Cc1cccc(CNc2ncnc3ccc(-c4ccc5c(ccn5C)c4)cc23)c1,AC50,[1],"29.1 µM [falling, single point]"
CSCCC(NC(=O)c1ccc(Cl)c([N+](=O)[O-])c1)C(=O)N1CCN(C/C=C/c2ccccc2)CC1 (configuration not stated),AC50,[1],"23.1 µM [falling, single point]"
N#Cc1c(N)nc(SCC(=O)OCc2ccccc2)c(C#N)c1-c1ccco1,AC50,[1],"5.62 µM [falling, partial curve, poor fit]"
O=C(CCN1C(=O)c2ccccc2C1=O)OCN1C(=O)c2ccccc2C1=O,AC50,[1],"2.91 µM [rising, partial curve]"
O=C1c2ccccc2C(Nc2ccc(F)c(Cl)c2)N1Cc1ccco1 (configuration not stated),AC50,[1],"14.6 µM [falling, partial curve]"
COc1ccc(-c2nc(CN3CCN(c4ncnc5ccccc45)CC3)c(C)o2)c(OC)c1,AC50,[1],"35.5 µM [falling, single point]"
NS(=O)(=O)c1cccc(NC(=O)COC(=O)COc2ccc3ccccc3c2)c1,AC50,[1],"0.112 µM [falling, full curve, poor fit]"
O=C(Nc1ccccc1Cl)c1cc2ccccc2o/c1=N\O,AC50,[1],"3.98 µM [falling, full curve]"
O=C(NCCCN1CCOCC1)c1ccc2c(c1)N(Cc1cccc(Cl)c1)C(=O)c1ccccc1S2,AC50,[1],"35.5 µM [falling, single point]"
O=C(/C=C/c1cccs1)Nc1ccncc1,AC50,[1],"20.6 µM [falling, partial curve]"
COc1ccc([C@H]2CC(=O)C=C(c3ccc4[nH]ccc4c3)C2)cc1OC,AC50,[1],"23.1 µM [falling, single point]"
O=c1c2c(nc3c(-c4ccccc4)c[nH]n13)CCCC2,AC50,[1],"5.8 µM [falling, full curve, poor fit]"
CCC(=O)N1CCN(c2nc(-c3ccccc3)c3c(c2C#N)CCCC3)CC1,AC50,[1],"0.164 µM [falling, full curve, poor fit]"
COc1ccc(Cl)cc1C(=O)NNC(=O)C1COc2ccccc2O1 (configuration not stated),AC50,[1],"3.55 µM [rising, full curve]"
O=C(Nc1ccc(F)c(F)c1)c1ccco1,AC50,[1],"35.5 µM [falling, partial curve, poor fit]"
O=C(NCC(c1ccco1)N1CCCC1)c1ccccc1Sc1ccc(C(F)(F)F)cc1[N+](=O)[O-] (configuration not stated),AC50,[1],"16.4 µM [falling, single point]"
CC(=O)c1ccc(S(=O)(=O)Nc2ccc(-c3ccc4nnc(C)n4n3)cc2)cc1,AC50,[1],"4.47 µM [rising, full curve]"
CCCCNS(=O)(=O)c1ccc(NC(=O)C2c3ccccc3Oc3ccccc32)cc1,AC50,[1],"29.1 µM [rising, single point]"
COc1ccc2[nH]c(C(=O)O)c(CCNC(C)=O)c2c1,AC50,[1],"20 µM [falling, single point]"
Oc1cccc(C=Nc2cccc3ccccc23)c1O,AC50,[1],"11.2 µM [rising, partial curve]"
O=C(CCCc1nc2ccccc2s1)NNC(=O)CCN1CCN(Cc2ccccc2)CC1,AC50,[1],"0.794 µM [rising, full curve, poor fit]"
Cc1ccc(Nc2c(-c3ccccn3)nc3cc(C)ccn23)cc1,AC50,[1],"11.2 µM [falling, single point]"
COc1ccc(CCNC(=O)CSc2cn(Cc3cccc(C)c3)c3ccccc23)cc1OC,AC50,[1],"32.6 µM [falling, single point]"
COC(=O)COc1ccc(S(=O)(=O)Nc2cc([N+](=O)[O-])ccc2C)cc1,AC50,[1],"35.5 µM [falling, single point]"
CC(=O)Nc1ccc(S(=O)(=O)N[C@@H](C)C(=O)OCC(=O)NC2CCCC2)cc1,AC50,[1],"3.66 µM [rising, partial curve, poor fit]"
CCC1CCCCN1C(=O)CN1C(=O)c2ccccc2S1(=O)=O (configuration not stated),AC50,[1],"11.6 µM [rising, partial curve]"
CCOC(=O)c1ccc(NS(=O)(=O)N2CCCCCC2)cc1,AC50,[1],"7.31 µM [falling, single point]"
O=C(C1COc2ccccc2O1)N1CCN(c2ccccc2O)CC1 (configuration not stated),AC50,[1],"32.6 µM [rising, single point]"
CCn1c(=O)c(C(=O)NCc2ccc(OC)cc2)c(O)c2ccccc21,AC50,[1],"29.1 µM [rising, single point]"
CCC(CCC(=O)Nc1ccn(-c2ccccc2)n1)C(=O)O (configuration not stated),AC50,[1],"29.1 µM [falling, partial curve, poor fit]"
CN(C)C(=S)SCC(=O)Nc1cccc(C(F)(F)F)c1,AC50,[1],"3.66 µM [rising, full curve, poor fit]"
CCOC(=O)/C(=C/c1ccc(OC(=O)c2ccncc2)cc1)C(C)=O,AC50,[1],"7.08 µM [falling, partial curve]"
Cn1nnnc1SCC(=O)Nc1nc2ccccc2s1,AC50,[1],"22.4 µM [falling, single point]"
Cc1cc(-c2[nH]nc3c2C(c2ccsc2)C(C#N)=C(N)O3)c(C)s1 (configuration not stated),AC50,[1],"7.31 µM [falling, partial curve, poor fit]"
COc1ccc(NC(=S)NC(NC(=O)c2ccc(Cl)cc2Cl)C(Cl)(Cl)Cl)c([N+](=O)[O-])c1 (configuration not stated),AC50,[1],"29.1 µM [falling, single point]"
O=C(CCC1COc2ccccc2O1)Nc1ccccn1 (configuration not stated),AC50,[1],"0.461 µM [falling, partial curve, poor fit]"
CC(=O)COC(=O)c1ccc2noc(-c3ccccc3)c2c1,AC50,[1],"10 µM [falling, partial curve, poor fit]"
CCCCCOC(=O)NC1CCS(=O)(=O)C1 (configuration not stated),AC50,[1],"4.47 µM [falling, single point]"
CC(C)(C)C(=O)Cn1ncc(N2CCCC2)c(Br)c1=O,AC50,[1],"35.5 µM [rising, single point]"
CCOC(=O)c1c(CN2CCOCC2)n(C)c2cc(Br)c(O)c(CN(C)C)c12,AC50,[1],"29.1 µM [rising, single point]"
O=C(Nc1ccc2nc(-c3ccc(Br)o3)[nH]c2c1)c1cccs1,AC50,[1],"2 µM [falling, full curve]"
CCOc1ccc(C2N(c3ccc(F)cc3)C(=O)C3CCCN32)cc1OC (configuration not stated),AC50,[1],"0.0082 µM [rising, full curve, poor fit]"
Nc1n[nH]c(-c2ccc([N+](=O)[O-])cc2[N+](=O)[O-])n1,AC50,[1],"1.26 µM [rising, partial curve]"
CCCCCCn1c(N2CCCC2)nc2c1c(=O)n(C)c(=O)n2C,AC50,[1],"35.5 µM [falling, single point]"
COc1cc([N+](=O)[O-])cc(/C=N\NC(=O)C2COc3ccccc3O2)c1O (configuration not stated),AC50,[1],"12.6 µM [falling, partial curve, poor fit]"
Cc1nn(-c2ccccc2)c(C)c1-c1cc(C(=O)N/N=C/c2ccc(O)cc2)[nH]n1,AC50,[1],"35.5 µM [falling, single point]"
O=C(Nc1ccccn1)c1ccc2c(c1)OCO2,AC50,[1],"10 µM [falling, partial curve]"
N#Cc1sc(NCc2ccccn2)nc1Cl,AC50,[1],"12.6 µM [rising, single point]"
COc1ccc2c(c1)O[C@H](c1ccc3c(c1)OCO3)[C@@H](OC(=O)Nc1cc(OC)c(OC)c(OC)c1)C2=O,AC50,[1],"13 µM [rising, partial curve]"
same,AC50,[2],"18.4 µM [falling, single point]"
O=c1c2ccccc2c(C=Nc2cccc(O)c2)c(O)n1-c1ccc2c(c1)OCO2,AC50,[1],"1.41 µM [rising, full curve, poor fit]"
Cc1ccccc1C(=O)Nc1ccc(C(=O)N/N=C/c2ccncc2)cc1,AC50,[1],"35.5 µM [falling, single point]"
same,AC50,[2],"15.8 µM [rising, partial curve, poor fit]"
CN(C(=O)CSc1n[nH]c(N)n1)C1CCCCC1,AC50,[1],"9.2 µM [rising, partial curve]"
O=C1Nc2ccccc2C12OCC1(CO2)COC2(OC1)C(=O)Nc1ccccc12 (configuration not stated),AC50,[1],"0.58 µM [rising, full curve, poor fit]"
Cc1cc(NC(=O)COc2ncnc3sc(C)c(C)c23)no1,AC50,[1],"2.31 µM [falling, partial curve, poor fit]"
COC(=O)c1cc(Br)cn1S(=O)(=O)c1ccccc1,AC50,[1],"35.5 µM [rising, single point]"
COc1cc(/C=C2/C(=O)NN(c3ccc(Cl)cc3)C2=O)ccc1OC(=O)c1ccco1,AC50,[1],"29.1 µM [falling, single point]"
CC(C)Sc1nsc2nc(=O)c(/C=C3\C=Nc4ccccc43)c(N)n12,AC50,[1],"0.1 µM [rising, full curve, poor fit]"
CCCc1cc(C(=O)Nc2ccc(C(=O)OC)cc2)cs1,AC50,[1],"1.41 µM [falling, full curve]"
C=CCn1c(SCC(=O)N2CCOCC2)nc2sc3c(c2c1=O)CCCC3,AC50,[1],"29.1 µM [rising, single point]"
COc1cccc(NC(=O)C(=O)NCCCn2ccnc2)c1,AC50,[1],"14.1 µM [falling, single point]"
Cc1cc(NC(=O)CSc2nnc(-c3ccccc3)n2Cc2ccco2)no1,AC50,[1],"12.6 µM [falling, partial curve]"
Cc1c(Cl)cnc(NC(=O)COC(=O)c2ccc3ncsc3c2)c1Cl,AC50,[1],"16.4 µM [falling, single point]"

# Laid out differently: results already given.
compound	measurement	setting	value
O=C(Nc1ccc2nc(-c3ccc(Br)o3)[nH]c2c1)c1cccs1	AC50	[1]	2 µM [falling, full curve]
CCOc1ccc(C2N(c3ccc(F)cc3)C(=O)C3CCCN32)cc1OC (configuration not stated)	AC50	[1]	0.0082 µM [rising, full curve, poor fit]
Nc1n[nH]c(-c2ccc([N+](=O)[O-])cc2[N+](=O)[O-])n1	AC50	[1]	1.26 µM [rising, partial curve]
CCCCCCn1c(N2CCCC2)nc2c1c(=O)n(C)c(=O)n2C	AC50	[1]	35.5 µM [falling, single point]

# From PubChem BioAssay AID493014 (National Center for Advancing Translational Sciences (NCATS), 2011)
